Earlier results as cited in patent publication US20070031367A1, “Composition and method for neck skin firming” (priority 2004, published 2007).
Read-outs that look alike come from different tables or passages of the source.

Conditions: comparison chart of pepper varieties and pure capsaicin, extract as sourced from vendor

COc1cc(CNC(=O)CCCC/C=C/C(C)C)ccc1O [Capsaicin, N-canillyl-8-methyl-6-(E)-noneamide]
Scoville Units: about 16,000,000 Scoville Units | Scoville Units (listed as Pure Capsaicin): 16,000,000 Scoville Units
